In publication PMC6284737:
Results are given in words; binding and its absence hold for the method and conditions named. In cells and extracts the contact can be indirect. Some results given as binding are weak or reduced against the parent protein; the word gives no strength.

By UniProt entry, the sequences of proteins in these tests, tags left out. Where a name states a change or a piece, a line headed by the entry shows the natural chain unless it says otherwise. Chains listed by the source or under a name are the forms on record and can include a tag or linker.
UniProt Q92731: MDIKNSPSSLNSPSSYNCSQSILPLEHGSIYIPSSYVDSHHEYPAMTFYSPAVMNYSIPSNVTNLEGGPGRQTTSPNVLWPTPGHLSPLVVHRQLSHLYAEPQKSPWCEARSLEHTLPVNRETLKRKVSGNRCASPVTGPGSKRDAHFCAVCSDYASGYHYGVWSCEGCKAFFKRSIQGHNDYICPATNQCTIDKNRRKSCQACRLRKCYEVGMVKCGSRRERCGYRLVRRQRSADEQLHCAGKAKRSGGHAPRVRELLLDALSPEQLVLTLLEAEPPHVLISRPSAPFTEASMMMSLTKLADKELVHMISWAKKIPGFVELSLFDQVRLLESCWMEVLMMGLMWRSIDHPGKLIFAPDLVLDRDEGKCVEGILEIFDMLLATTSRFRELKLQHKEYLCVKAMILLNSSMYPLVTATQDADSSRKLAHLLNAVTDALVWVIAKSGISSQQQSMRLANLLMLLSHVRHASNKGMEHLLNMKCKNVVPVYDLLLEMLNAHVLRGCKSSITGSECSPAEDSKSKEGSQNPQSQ
estrogen receptor β2 (B7TEV-ERβ2) (Q92731, form named): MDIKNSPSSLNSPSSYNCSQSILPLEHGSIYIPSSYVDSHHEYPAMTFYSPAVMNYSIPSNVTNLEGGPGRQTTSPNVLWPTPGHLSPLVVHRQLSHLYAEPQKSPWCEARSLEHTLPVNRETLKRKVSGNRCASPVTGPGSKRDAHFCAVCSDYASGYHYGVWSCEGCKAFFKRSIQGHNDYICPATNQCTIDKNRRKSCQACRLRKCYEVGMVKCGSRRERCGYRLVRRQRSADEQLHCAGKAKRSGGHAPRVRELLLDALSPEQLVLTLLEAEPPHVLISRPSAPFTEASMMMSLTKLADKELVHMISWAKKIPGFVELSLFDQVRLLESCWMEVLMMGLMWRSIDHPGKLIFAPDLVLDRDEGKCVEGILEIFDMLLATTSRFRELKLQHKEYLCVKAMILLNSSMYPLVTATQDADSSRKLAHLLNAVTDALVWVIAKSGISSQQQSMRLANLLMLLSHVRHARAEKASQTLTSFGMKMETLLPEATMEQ
UniProt P03372: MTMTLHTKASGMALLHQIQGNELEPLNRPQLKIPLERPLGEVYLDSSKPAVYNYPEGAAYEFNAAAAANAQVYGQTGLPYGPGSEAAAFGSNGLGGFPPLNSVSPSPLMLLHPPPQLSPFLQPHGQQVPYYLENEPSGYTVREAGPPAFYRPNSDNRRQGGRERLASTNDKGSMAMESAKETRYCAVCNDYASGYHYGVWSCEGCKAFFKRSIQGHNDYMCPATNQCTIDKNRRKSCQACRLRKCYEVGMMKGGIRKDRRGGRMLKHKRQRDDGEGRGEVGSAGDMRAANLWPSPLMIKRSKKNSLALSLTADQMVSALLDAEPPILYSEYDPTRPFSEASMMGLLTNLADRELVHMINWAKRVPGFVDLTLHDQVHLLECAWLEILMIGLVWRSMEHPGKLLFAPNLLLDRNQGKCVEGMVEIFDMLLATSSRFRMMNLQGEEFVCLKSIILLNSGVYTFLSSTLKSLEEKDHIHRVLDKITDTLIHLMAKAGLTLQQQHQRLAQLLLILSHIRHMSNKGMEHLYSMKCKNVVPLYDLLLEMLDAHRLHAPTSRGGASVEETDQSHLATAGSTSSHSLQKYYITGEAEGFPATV
UniProt Q16665: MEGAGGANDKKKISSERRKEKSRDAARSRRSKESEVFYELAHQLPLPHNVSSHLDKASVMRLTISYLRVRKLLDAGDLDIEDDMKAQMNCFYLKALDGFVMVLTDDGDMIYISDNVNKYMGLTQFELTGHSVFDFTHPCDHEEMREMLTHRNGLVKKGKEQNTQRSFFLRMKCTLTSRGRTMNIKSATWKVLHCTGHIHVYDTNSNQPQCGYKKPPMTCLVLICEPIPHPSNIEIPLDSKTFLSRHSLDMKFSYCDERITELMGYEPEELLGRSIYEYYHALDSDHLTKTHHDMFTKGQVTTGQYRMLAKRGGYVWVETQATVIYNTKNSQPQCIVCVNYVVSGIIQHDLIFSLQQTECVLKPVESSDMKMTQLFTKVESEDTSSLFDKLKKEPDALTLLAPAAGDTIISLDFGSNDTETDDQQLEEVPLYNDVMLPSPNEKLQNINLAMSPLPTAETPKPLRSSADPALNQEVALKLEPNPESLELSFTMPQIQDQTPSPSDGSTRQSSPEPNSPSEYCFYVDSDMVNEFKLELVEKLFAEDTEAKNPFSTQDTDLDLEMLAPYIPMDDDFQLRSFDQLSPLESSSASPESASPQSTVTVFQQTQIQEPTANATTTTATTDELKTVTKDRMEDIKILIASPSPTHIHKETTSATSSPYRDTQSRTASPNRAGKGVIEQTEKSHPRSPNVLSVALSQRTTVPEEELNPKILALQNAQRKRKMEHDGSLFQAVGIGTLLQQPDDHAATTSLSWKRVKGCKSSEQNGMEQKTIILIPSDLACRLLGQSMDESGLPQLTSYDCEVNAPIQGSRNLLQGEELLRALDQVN
UniProt Q99814: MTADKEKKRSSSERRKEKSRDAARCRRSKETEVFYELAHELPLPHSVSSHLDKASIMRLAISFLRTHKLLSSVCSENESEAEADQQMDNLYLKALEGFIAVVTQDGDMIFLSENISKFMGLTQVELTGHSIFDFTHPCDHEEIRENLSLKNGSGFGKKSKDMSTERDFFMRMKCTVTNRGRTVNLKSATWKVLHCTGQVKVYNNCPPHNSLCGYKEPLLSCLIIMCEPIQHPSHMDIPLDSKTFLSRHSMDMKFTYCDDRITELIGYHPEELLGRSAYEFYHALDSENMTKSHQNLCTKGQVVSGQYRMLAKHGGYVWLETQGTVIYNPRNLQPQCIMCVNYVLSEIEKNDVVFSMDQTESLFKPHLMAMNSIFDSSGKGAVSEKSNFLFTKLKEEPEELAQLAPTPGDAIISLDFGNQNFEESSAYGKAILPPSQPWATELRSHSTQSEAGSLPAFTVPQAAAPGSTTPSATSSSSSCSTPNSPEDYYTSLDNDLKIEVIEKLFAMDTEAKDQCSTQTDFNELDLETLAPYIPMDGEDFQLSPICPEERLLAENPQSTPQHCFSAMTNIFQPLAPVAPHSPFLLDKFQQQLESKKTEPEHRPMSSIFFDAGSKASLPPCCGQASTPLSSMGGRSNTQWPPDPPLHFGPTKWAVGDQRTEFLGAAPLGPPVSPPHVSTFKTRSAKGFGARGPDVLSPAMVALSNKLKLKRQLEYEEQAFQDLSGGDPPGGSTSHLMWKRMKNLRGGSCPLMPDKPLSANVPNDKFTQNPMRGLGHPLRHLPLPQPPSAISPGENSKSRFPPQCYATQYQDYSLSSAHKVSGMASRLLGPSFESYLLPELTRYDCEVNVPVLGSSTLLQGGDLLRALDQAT

Experiments:
Test in all cases: pull-down; PC3 cells co-transfected with biotinylation-consensus-tagged receptor, BirA and HA-HIF-1α or HA-HIF-2α; extract in NETN (20 mM Tris pH 8.0, 100 mM NaCl, 1 mM EDTA, 0.5% Nonidet P-40); biotinylated receptors held on streptavidin magnetic beads for 2 hours in the cold room, 3 x 10 min washes; HIF detected by Western blot (the legend calls it co-immunoprecipitation)
[1] = biological target: estrogen receptor β2 (B7TEV-ERβ2) (UniProt Q92731)
[2] = biological target: estrogen receptor α (B7TEV-ERα) (UniProt P03372)
[3] = biological target: estrogen receptor β1 (B7TEV-ERβ1) (UniProt Q92731)

Substance | binding [1] | binding [2] | binding [3]
HIF-1α (pcDNA3 HA-HIF-1α) (from UniProt Q16665 1-826) | binds | – | –
HIF-2α (pcDNA3 HA-HIF-2α) (from UniProt Q99814 1-870) | binds | no binding | binds
